Laboratory results: patent publication US10195287B2 (Chemical & Biopharmaceutical Laboratories of Patras S.A., priority 2013, dated 2019)

How the values were obtained:
[1] = general procedure: peptide synthesis; H-Gly-O-CTC resin; DIC/HOBt; HOSu/EDAC for fragment condensation; conditions: whole synthesis, scale 1.0 mmol
[2] = general procedure: peptide synthesis; H-Arg(Pbf)-O-CTC resin; DIC/HOBt; HOSu/EDAC for fragment condensation; conditions: whole synthesis, scale 1.0 mmol
[3] = general procedure: peptide synthesis; 4-methyl-benzhydryl resin; DIC/HOBt; HOSu/EDAC for fragment condensation; conditions: whole synthesis
[4] = general procedure: peptide synthesis; H-Lys(MMT resin)-OTrt; DIC/HOBt; HOSu/EDAC for fragment condensation; conditions: whole synthesis, scale 1.0 mmol

Partially Protected and Carboxyl Group Activated Insulin Gly(A21)-Chain of Structure 6
crude mass [1]: 3.04 g | crude yield [1]: 90.0%

Selectively at the Lys^29 Deprotected B(Arg31), B(Arg32) Human Insulin B Chain of Structure 8
crude mass [2]: 5.61 g | crude yield [2]: 90.2%

Single Chain Insulin Glu(A21), des Thr(B30) where the Insulin Chains are Connected Through the Side Chains of Glu(A21) and Lys(B29) and the Oligoethylen Glycol Modifier
isolated mass [3]: 82.4 mg | isolated yield ([3]; scale of the general procedure 1.0 mmol): 14.29%

Selectively at the Lys^29 Side Chain Deprotected des-Thr^30 Human Insulin of Structure 12
crude mass [4]: 4.93 g | crude yield [4]: 94.1%
